Measured values from article PMC7851739.
No constants are given. Whether binding was seen depends on the method and setting. In cells and extracts the contact can be indirect. Some binding calls cover weakened binding; strength is not graded here.

Molecular target: T1, apoptosis-associated speck-like protein containing a CARD (ASC) (mouse (endogenous in BMDMs)) (UniProt Q9EPB4)
T1 sequence: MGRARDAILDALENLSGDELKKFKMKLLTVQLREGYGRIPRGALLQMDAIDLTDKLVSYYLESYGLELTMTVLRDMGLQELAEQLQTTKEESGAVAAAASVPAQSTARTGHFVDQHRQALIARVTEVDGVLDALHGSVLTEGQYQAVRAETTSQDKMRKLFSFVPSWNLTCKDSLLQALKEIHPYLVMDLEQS
Assay: co-IP; BMDM lysates incubated with anti-ASC antibody and Protein A/G plus agarose overnight at 4°C, immunoblotting; IgG isotype control; cells treated with LPS (300 ng/ml, 3 h) and ATP (5 mM, 1 h), with or without pretreatment with koumine (KM, 200 μM, 1 h)

- binding: binds
B1: pro-caspase-1 (protein, UniProt P29452 1-402)
chain: MADKILRAKRKQFINSVSIGTINGLLDELLEKRVLNQEEMDKIKLANITAMDKARDLCDHVSKKGPQASQIFITYICNEDCYLAGILELQSAPSAETFVATEDSKGGHPSSSETKEEQNKEDGTFPGLTGTLKFCPLEKAQKLWKENPSEIYPIMNTTTRTRLALIICNTEFQHLSPRVGAQVDLREMKLLLEDLGYTVKVKENLTALEMVKEVKEFAACPEHKTSDSTFLVFMSHGIQEGICGTTYSNEVSDILKVDTIFQMMNTLKCPSLKDKPKVIIIQACRGEKQGVVLLKDSVRDSEEDFLTDAIFEDDGIKKAHIEKDFIAFCSSTPDNVSWRHPVRGSLFIESLIKHMKEYAWSCDLEDIFRKVRFSFEQPEFRLQMPTADRVTLTKRFYLFPGH
